Experimental data published in patent US8890089B2, “Faecal markers” (Aberystwyth University, priority 2009, dated 2014).

assay: Fluorescence of faeces from sheep fed marker supplement; format: in vivo; conditions: 2 g/d marker for one week on concentrate and barley straw
Procedure: A number of chlorophyll breakdown products was tested for use as markers of faecal contamination on a range of diets. Eight Cheviot sheep were fed either: i) fresh grass and clover, ii) grass silage, iii) hay or iv) concentrate and barley straw. Each diet was offered to two sheep for a period of two weeks before diet change over in a duplicate 4×4 Latin Square design. Samples of feed were collected during the whole feeding period and bulked whilst samples of faeces were taken at the end of the period. Samples were measured for chlorophyll and its derivatives using HPLC. Fluorescence emission spectra were measured directly on the faeces. The samples were placed into sample cuvettes, which exposed a flat circular surface with a diameter of 5 cm for the measurements. The fluorescence emission spectra were measured with excitation at 382 nm and 430 nm, using an optical bench system, suitable for solutions and solid samples. The excitation light was generated by a 300 W Xenon light source (Oriel 6258, Oriel Corporation, Stratford, Conn.) and passed through a 10 nm bandwidth interference filter (Oriel 59920) and (Oriel 59295). The light was directed onto the samples at an angle of about 45°. The spectra were collected by an imaging spectrograph (Acton SP-150, Acton Research Corporation, Acton, Mass.) connected to a sensitive charge coupled device (CCD-camera) (Roper Scientific NTE/CCD-1340/400-EMB, Roper Scientific, Trenton, N.J.). Cut-off filters at 400 nm (for the 382 nm excitation) (Melles Griot 03FCG049) and 475 nm (for the 430 nm excitation) (Melles Griot 03FCG068) were positioned in front of the spectrograph slit to suppress excitation light reflected from the samples. […] All the samples were measured twice and an average was used in the analysis. […] To ensure stable illumination, the emission intensity at 440 nm at excitation 382 nm was measured from a stable fluorescence standard of washable plastic (Ciba, Basel, Switzerland) before and after the measurements. Fluorescence images were collected with the same system, slightly modified. […]

Fluorescence in faeces, produced fluorescence in faeces:
iron chlorophyllin [Fe]
magnesium chlorophyllin [Mg]
zinc chlorophyllin [Zn]

Some compounds share one wording; it may come from a single statement.
